# Source: PubChem BioAssay (NCATS)
# Inconclusive means that the source gave no clear call. Such entries were picked first, then a sample of the others. Potencies beside an inconclusive call are fits to weak or partial responses and may not hold up. Activity calls are given as the source filed them. The call rests on the fitted dose curve; in most records, active means well fitted activation curve with a large enough effect; inconclusive means small, poorly fitted or top-dose-only effect, or another doubt; inactive means no such curve, though single readings can be large or run the other way.
# Molecular target: Rap guanine nucleotide exchange factor 3 (Homo sapiens) (UniProt O95398)
# Assay: Counterscreen qHTS for agonist of cAMP-regulated guanine nucleotide exchange factor 3 (EPAC1) (AID 1645889); further: nearly all actives have a fitted effect of over 40% in size; on activation: % of control where 0% means no effect
# Conditions: EPAC1 Rap1B-BODIPY-GDP exchange, fluorescence; activation: at 154 µM (top of the series) unless noted
# How it was run: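 Rap1B–BODIPY-GDP (250 nM) with 50 uM GDP; compounds pin-transferred to 9.74 nM–152 uM final (activator) or from 7.32 nM upwards (inhibitor). Fluorescence Ex/Em 480/540 nm read at 5 and 30 min, then after adding cAMP or buffer, at room temperature.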
# Potency means the concentration at half of the fitted maximal effect.
SMILES,Potency,activation
Cc1cc(C)cc(-c2nnc(SCc3ccc(C(=O)O)cc3)o2)c1,"inconclusive: 0.0447 µM [activator, full curve, poor fit]",–
O=C(c1ccco1)N(Cc1cccc([N+](=O)[O-])c1)c1ccc(Br)cc1,"inconclusive: 22.4 µM [activator, partial curve, poor fit]",–
COc1ccc(C(NC(C)=O)c2cc(Cl)c3cccnc3c2O)cc1 (configuration not stated),"inconclusive: 4.47 µM [activator, partial curve, poor fit]",–
Cn1c(=O)c2nc(SCC(=O)Nc3ccc(Cl)c(Cl)c3)n(C)c2n(C)c1=O,–,inactive: 12.7%
CCOC(=O)c1cc2n(c1/N=C/N(C)C)-c1ccccc1C2=O,"inconclusive: 0.178 µM [activator, full curve, poor fit]",–
O=c1oc(-c2ccccc2NS(=O)(=O)c2ccccc2)nc2ccccc12,–,inconclusive: 35.3% [activator] [at 30.8 µM]
CCCCn1c(N)c(N(CCOC)C(=O)c2cccc(S(=O)(=O)N(C)c3ccc(C)cc3)c2)c(=O)[nH]c1=O,–,inactive: 14.6% [at 30.8 µM]
O=C1Nc2ccccc2SC1c1ccccc1 (configuration not stated),–,inconclusive: 43.3% [activator] [at 30.8 µM]
CCOC(=O)c1[nH]c(C)c(C(=O)NC(C)(C)C)c1C,–,inconclusive: 46.5% [activator]
COC(=O)[C@@H]1CC[C@@](C)(c2ccc(OC)cc2)C1(C)C,"inconclusive: 3.98 µM [activator, single point]",–
COc1cc(/C=C2\SC(=S)N(C(C(=O)O)c3ccccc3)C2=O)ccc1O (configuration not stated),–,inactive: -3.27%
Cc1nc(Nc2ccc(Br)cc2Br)c([N+](=O)[O-])c(=O)[nH]1,–,inconclusive: 38.1% [activator]
COc1ccccc1NC(=O)c1sc2nc(C)c(C(=O)Nc3ccc(C)cc3C)c(-c3ccco3)c2c1N,–,inconclusive: 51.6% [activator]
Cc1ccccc1OCCC(=O)OCC(=O)NC1CCCCC1,–,inconclusive: 38.4% [activator] [at 30.8 µM]
O=C1CC(c2ccccc2)=C(c2ccccc2)C1,–,inconclusive: 41.8% [activator] [at 30.8 µM]
CCCN1CCN(S(=O)(=O)c2ccc3c(c2)NC(=O)C(C)C(=O)N3)CC1 (configuration not stated),–,inconclusive: 33.9% [activator]

SMILES,Potency,activation
COc1ccc(N2C(=O)[C@H]3CCC=C[C@H]3[C@@H]2c2ccccc2Br)cc1,–,inactive: 3.3%
CC1CCCCC1NC(=O)COC(=O)c1c2c(nc3ccccc13)/C(=C/c1ccco1)CC2 (configuration not stated),–,inactive: -5.22%
CCc1ccc(/C=C2\SC(=S)N(CCC(=O)Nc3cc(C)on3)C2=O)cc1,–,inactive: 12.3%
COC(=O)C1=NNCC12CC(=O)N(c1ccc(Br)cc1)C2=O (configuration not stated),–,inconclusive: 39.5% [activator]
CC(=O)N1c2ccc(S(=O)(=O)N(C)Cc3ccco3)cc2CC1C (configuration not stated),–,inactive: 14.9%
C/C(CC(=O)Nc1ccc2ccccc2c1)=N\NC(=O)c1cnccn1,–,inconclusive: 40.3% [activator]
CCOC(=O)C1C(=O)C=C(c2ccccc2)CC1c1ccccc1 (configuration not stated),"inconclusive: 15.8 µM [activator, partial curve, poor fit]",–
CCOc1ccc(S(=O)(=O)N2CCCCC2)c(C)c1C,"inconclusive: 56.2 µM [activator, single point]",–
O=C(NCc1ccco1)c1c[nH]c2ccc(S(=O)(=O)N3CCOCC3)cc2c1=O,"inconclusive: 0.01 µM [activator, full curve, poor fit]",–
N#C/C(=C\c1cn(Cc2ccc(C#N)cc2)c2ccccc12)C(=O)NCc1cccs1,–,inactive: 15.9% [at 30.8 µM]
CCOC(=O)C1=CCN(S(=O)(=O)c2ccc(C)cc2)C1c1cccc(Cl)c1 (configuration not stated),–,inactive: -0.805%
CCc1ccccc1C1=CC(=O)C[C@H](c2ccc(OC)cc2)C1,"inconclusive: 22.4 µM [activator, partial curve, poor fit]",–
CC(OC(=O)CN1C(=O)COc2ccccc21)C(=O)NCc1ccc(F)cc1 (configuration not stated),–,inactive: -6.39%
COC(=O)c1cn(S(=O)(=O)c2ccccc2)c2ccccc12,"inconclusive: 3.55 µM [activator, partial curve, poor fit]",–
NNc1nc2c(Cl)cccc2s1,"inconclusive: 20 µM [activator, partial curve, poor fit]",–
NC(=O)COC(=O)c1ccc(Cl)c(S(=O)(=O)N(Cc2ccccc2)c2ccc(Cl)cc2)c1,"inconclusive: 5.01 µM [activator, partial curve, poor fit]",–

# 3 structures from above, sorted by count of non-hydrogen atoms, high to low.
SMILES,Potency,activation
CC1CCCCC1NC(=O)COC(=O)c1c2c(nc3ccccc13)/C(=C/c1ccco1)CC2 (configuration not stated),–,inactive: -5.22%
N#C/C(=C\c1cn(Cc2ccc(C#N)cc2)c2ccccc12)C(=O)NCc1cccs1,–,inactive: 15.9% [at 30.8 µM]
O=c1oc(-c2ccccc2NS(=O)(=O)c2ccccc2)nc2ccccc12,–,inconclusive: 35.3% [activator] [at 30.8 µM]
